Laboratory results reported in publication PMC12393484.

Sequences of proteins named here, by UniProt entry; tags and fusion partners are left off.
UniProt P35713: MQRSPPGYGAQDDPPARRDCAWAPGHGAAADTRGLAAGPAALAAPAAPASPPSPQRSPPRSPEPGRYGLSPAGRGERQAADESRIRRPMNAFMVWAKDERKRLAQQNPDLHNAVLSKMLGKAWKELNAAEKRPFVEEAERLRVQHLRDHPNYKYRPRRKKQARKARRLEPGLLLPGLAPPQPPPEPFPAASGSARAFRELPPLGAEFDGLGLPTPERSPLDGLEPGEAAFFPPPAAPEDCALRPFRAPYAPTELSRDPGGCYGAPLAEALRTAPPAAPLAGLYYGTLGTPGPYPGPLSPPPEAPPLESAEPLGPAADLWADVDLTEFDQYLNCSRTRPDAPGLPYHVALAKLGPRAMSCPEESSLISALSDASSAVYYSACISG
UniProt P51532: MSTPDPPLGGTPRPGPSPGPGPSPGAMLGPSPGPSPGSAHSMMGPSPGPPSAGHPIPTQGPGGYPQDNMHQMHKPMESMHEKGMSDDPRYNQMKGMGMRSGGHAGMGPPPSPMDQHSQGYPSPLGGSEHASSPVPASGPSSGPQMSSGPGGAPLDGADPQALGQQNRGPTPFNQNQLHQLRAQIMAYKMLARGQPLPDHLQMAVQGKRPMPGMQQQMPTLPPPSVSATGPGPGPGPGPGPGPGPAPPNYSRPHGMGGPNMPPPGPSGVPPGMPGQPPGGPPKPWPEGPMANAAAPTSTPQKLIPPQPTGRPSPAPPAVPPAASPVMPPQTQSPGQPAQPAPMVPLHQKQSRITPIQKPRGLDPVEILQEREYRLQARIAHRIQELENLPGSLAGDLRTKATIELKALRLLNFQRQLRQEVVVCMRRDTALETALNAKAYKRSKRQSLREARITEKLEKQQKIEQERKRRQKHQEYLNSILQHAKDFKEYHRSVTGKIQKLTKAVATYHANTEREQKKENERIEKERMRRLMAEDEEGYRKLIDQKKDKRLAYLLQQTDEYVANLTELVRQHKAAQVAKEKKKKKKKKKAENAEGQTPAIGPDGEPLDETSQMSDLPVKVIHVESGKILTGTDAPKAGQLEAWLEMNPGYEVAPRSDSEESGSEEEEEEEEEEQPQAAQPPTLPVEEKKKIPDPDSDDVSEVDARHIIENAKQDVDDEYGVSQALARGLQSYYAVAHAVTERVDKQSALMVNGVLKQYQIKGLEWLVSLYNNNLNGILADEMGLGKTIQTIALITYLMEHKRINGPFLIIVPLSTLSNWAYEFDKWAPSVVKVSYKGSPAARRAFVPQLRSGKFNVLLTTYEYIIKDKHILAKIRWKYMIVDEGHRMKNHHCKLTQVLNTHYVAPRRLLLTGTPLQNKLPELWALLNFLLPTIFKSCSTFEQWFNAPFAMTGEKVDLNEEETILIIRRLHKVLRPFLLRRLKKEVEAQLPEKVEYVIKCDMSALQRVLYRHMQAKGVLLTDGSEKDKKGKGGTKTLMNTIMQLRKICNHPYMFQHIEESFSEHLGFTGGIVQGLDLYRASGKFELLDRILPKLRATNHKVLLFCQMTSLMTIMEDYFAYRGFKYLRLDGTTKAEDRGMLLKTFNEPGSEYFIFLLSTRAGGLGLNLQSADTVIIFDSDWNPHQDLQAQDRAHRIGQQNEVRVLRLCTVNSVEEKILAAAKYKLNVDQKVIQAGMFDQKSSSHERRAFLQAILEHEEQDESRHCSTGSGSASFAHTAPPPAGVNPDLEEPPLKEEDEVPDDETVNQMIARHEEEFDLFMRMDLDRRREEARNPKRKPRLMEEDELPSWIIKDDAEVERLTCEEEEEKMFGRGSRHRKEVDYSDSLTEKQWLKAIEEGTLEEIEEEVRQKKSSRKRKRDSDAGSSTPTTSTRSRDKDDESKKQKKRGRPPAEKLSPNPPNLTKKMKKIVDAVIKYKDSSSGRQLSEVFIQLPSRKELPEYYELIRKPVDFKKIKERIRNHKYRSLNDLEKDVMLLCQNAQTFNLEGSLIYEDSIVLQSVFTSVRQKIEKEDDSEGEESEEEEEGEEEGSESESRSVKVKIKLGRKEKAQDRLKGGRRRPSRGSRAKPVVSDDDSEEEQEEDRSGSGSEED
UniProt P51531: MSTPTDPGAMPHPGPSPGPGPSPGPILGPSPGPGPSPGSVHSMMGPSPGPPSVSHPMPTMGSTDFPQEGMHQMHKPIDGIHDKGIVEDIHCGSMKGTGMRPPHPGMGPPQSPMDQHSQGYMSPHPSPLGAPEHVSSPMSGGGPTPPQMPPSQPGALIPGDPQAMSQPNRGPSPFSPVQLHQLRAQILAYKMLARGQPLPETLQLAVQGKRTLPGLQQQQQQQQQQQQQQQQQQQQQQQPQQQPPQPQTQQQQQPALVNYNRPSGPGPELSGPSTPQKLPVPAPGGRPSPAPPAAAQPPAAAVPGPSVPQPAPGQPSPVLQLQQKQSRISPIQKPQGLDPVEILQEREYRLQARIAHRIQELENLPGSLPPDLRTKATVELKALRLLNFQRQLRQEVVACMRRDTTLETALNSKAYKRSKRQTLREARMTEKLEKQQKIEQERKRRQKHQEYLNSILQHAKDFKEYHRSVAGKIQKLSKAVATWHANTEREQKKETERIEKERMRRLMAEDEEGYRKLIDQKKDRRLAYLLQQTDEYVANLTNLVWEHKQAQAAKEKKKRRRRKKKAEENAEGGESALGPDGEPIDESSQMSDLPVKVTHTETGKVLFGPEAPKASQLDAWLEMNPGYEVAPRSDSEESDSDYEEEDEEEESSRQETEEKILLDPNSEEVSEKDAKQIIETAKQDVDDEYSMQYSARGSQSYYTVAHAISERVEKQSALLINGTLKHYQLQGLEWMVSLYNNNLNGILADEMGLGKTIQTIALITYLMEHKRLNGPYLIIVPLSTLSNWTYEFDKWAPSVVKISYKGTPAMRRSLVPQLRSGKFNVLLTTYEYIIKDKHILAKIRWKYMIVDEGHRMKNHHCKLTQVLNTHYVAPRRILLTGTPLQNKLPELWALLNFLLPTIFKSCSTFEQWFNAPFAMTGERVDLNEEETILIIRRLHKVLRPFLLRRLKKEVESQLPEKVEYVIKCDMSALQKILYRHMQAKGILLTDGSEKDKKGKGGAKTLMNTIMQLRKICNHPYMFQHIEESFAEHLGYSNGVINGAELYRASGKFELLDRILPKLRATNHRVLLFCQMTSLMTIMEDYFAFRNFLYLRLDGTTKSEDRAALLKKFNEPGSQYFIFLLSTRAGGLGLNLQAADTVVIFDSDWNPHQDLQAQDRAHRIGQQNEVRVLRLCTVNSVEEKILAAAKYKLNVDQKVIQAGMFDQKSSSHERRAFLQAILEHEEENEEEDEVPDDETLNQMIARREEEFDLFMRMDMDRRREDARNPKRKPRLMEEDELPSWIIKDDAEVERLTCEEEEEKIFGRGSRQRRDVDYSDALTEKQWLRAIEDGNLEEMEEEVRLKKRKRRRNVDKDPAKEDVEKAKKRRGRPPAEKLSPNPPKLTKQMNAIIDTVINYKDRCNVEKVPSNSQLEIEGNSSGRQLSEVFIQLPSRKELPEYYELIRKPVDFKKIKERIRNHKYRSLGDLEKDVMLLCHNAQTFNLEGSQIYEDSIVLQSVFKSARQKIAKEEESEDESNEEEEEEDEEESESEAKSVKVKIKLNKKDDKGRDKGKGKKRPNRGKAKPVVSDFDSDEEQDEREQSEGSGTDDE

Target: BirA*-fusion of SOX18 (pFuW-myc-BirA-NLS-SOX18) (human) (UniProt P35713)
Experiment: proximity labelling; BioID: BirA*SOX18 (control BirA*Cherry) in stably, latently KSHV-infected iSLK.219 cells; 50 uM biotin 24 h; Strep-Tactin purification, LC-MS; filtered with CRAPome and SAINTexpress

binding	Substance
binds	BRG1, ATPase subunit of the SWI/SNF chromatin-remodeling complex (from UniProt P51532 1-1647)
binds	BRM, SWI/SNF ATPase (from UniProt P51531 1-1590)

No constants are given. Whether binding was seen depends on the method and setting. In cells and extracts the contact can be indirect. A yes stands for co-enrichment or nearness to the bait. Other partners may have been found.
